# According to ChEMBL document CHEMBL4513149, “CO-ADD screening of MMV (CH) - MMV compounds” (2021):
# This is one part of the list. Potency and affinity values are given separately.
# Test system: Acinetobacter baumannii
# Conditions: Concentration 20 uM; ASSAY_TEST Inhibition of Bacterial Growth; detection method Absorption (OD600); MEDIA CAMHB; plate type 384well; NBS; CORNING #3640; time 18 hr
row,SMILES,Inhibition [%]
1,Brc1c(-c2ccc3c(c2)OCO3)nc2ncccn12,9.07
2,Cc1cnc(N2CCN[C@@H](Cc3ccccc3)C2)nc1Oc1ccc(-n2ccnc2)cc1.Cl,12.05
3,CCCCN(CCCC)c1c(C#N)cc(S(=O)(=O)Nc2ccccc2)cc1C#N,4.78
4,CCCNC(=O)N1CCC2(CC1)CC(=O)c1cc(C)ccc1O2,10.32
5,CCC(C)NC(=O)c1ccc(NC(=O)C2(c3ccccc3)CCCC2)cc1 (centres undefined),7.16
6,Cc1cc(Cl)c(S(=O)(=O)N2CCCC2)cc1OCC(=O)NC1CCCCC1,4.57
7,O=C(NC1CC1)c1ccc(CSCc2ccccc2Cl)o1,3.54
8,COc1ccc(-c2cnc3ccc(N4CCCC4)nn23)cc1OC,10.59
9,CNc1nnc(Sc2cnn(-c3ccccc3)c(=O)c2Cl)s1,2.31
10,COC(=O)c1ccc(F)cc1NS(=O)(=O)c1cccc(-c2cnn(Cc3ccccc3)c2)c1,-6.13
11,COc1cc(C(F)(F)F)nc2ccc(C)c(N)c12,9.33
12,O=C(c1[nH]nc2c1CCCC2)N1CCN(Cc2ccc3c(c2)OCO3)CC1,5.53
13,CC(Oc1ccccc1)C(=O)Nc1nc(-c2ccccn2)cs1 (centres undefined),9.37
14,Nc1ncc(-c2ccc(C(F)(F)F)nc2)cc1-c1ccc(C(F)(F)F)nc1,-2.69
15,Cc1cc(C)c2cc(C(=O)NC3CCCCCCC3)[nH]c2c1,6.38
16,Cc1ccc2[nH]c(C3CCCNC3)c(-c3ccncc3)c2c1.Cl.Cl (centres undefined),-1.93
17,CCCCc1ccc(C(=O)Nc2nccc3ccccc23)nc1,12.68
18,CC(=O)Nc1ccc(-c2noc(CC3CCCN(Cc4cccc(F)c4C)C3)n2)cc1 (centres undefined),6.04
19,Cc1ccc(NC(=O)CC2COc3ccccc3O2)cc1Cl (centres undefined),3.82
20,CCc1cc(=O)n(C)c(SC(C)C(=O)Nc2ccc(F)cc2)n1 (centres undefined),0.57
21,FC(F)(F)c1cccc(-c2nc3c(NCc4ccncc4)nccc3[nH]2)c1,-4.54
22,CNC(=O)c1cc(S(=O)(=O)N2CCN(c3ccccn3)CC2)cs1,8.13
23,O=C1Nc2ccc(Br)cc2C12NCCc1c2[nH]c2ccccc12 (centres undefined),7.8
24,CN1CCN(S(=O)(=O)c2ccc(-c3ccc4c(Nc5ccc6nn[nH]c6c5)ccnc4c3)cc2)CC1,4.74
25,COc1ccccc1OCCCCn1c(C2CC2)nc2ccccc21,10.96
26,CC(C(=O)N1CCCC1)N1CCN(S(=O)(=O)c2ccc(C(C)(C)C)cc2)CC1 (centres undefined),4.82
27,COc1ccc(S(=O)(=O)Nc2ccc(CN3CCN(C(=O)c4cccc(C#N)c4)CC3)cc2)cc1,7.55

row,SMILES,Inhibition [%]
1,CS(=O)(=O)c1ccc(C(=O)N(CC2CCCO2)c2nc3ccccc3s2)cc1[N+](=O)[O-] (centres undefined),-2.48
2,O=C(c1cc2ccccc2o1)N1CCN(Cc2ccc3c(c2)OCO3)CC1,8.3
3,CC(=O)N1CCc2cc3nc(C)cc(C)c3cc21,10.62
4,CN1CCN(S(=O)(=O)c2ccc(-c3ccc4c(Nc5ncc(Cl)cn5)ccnc4c3)cc2)CC1,11.8
5,COc1ccc(-c2cnc3ccc(NCc4ccc(S(N)(=O)=O)cc4)nn23)cn1,11.24
6,FC(F)(F)c1nnc2ccc(Cl)nn12,8.19
7,COc1ccc(Cl)cc1NC(=O)CN(C)C(=O)c1cnn(-c2ccccc2)n1,14.66
8,CCN(CC)C(=O)N1CCN(C)CC1 [DIETHYLCARBAMAZINE],9.65
9,COc1cc(Br)cc2cc(C(=O)Nc3cccc(C(F)(F)F)c3)c(=O)oc12,11.35
10,COC(=O)c1c(NC(=O)c2c(F)c(F)c(F)c(F)c2F)sc2c1CCCCC2,10.17
11,Cc1cc(Nc2ccncc2)n2nc(C)c(-c3ccccc3Cl)c2n1,12.16
12,CNc1cc(C)nc(C2CN(C(=O)c3n[nH]c4ccccc34)CCO2)c1 (centres undefined),18.6
13,CCNC(=O)C(C)Nc1nc(-c2cccnc2)nc2sc(C)c(C)c12 (centres undefined),2.11
14,Cc1cccc(-c2nc(Nc3ccncn3)c3sccc3n2)n1,3.02
15,CS(=O)(=O)N1CCC(Cn2nc(Cc3cccc4ccccc34)c3c(N)ncnc32)CC1,9.09
16,CC(C)(C)c1cc(C(=O)N2CCN(c3nccnc3C#N)CC2)n(Cc2ccccc2)n1,11.89
17,Cc1ccc(S(=O)(=O)N2CCN(C(=O)c3cc(-c4ccccc4)n[nH]3)CC2)cc1,-2.29
18,CCOc1ccc2cc(-c3nn(C(C)(C)C)c(N)c3C(N)=O)cnc2c1.Cl,14.53
19,O=C(CCC1CCCCC1)Nc1cccc(-c2nnc(-c3ccco3)o2)c1,9.52
20,CC(C)n1ncc2c(C(=O)NCC(c3cccs3)N3CCOCC3)cc(-c3ccccc3)nc21 (centres undefined),6.63
21,COc1ccc(C2=NN(C3CCCCCC3)C(=O)[C@@H]3CC=CC[C@H]23)cc1OCCCCOc1ccc(-c2nnn[nH]2)cc1,4.92
22,COc1ccc(C2=NCCN2)cc1-c1cn(-c2cccc(C3=NCCN3)c2)nn1.O=C(O)C(F)(F)F.O=C(O)C(F)(F)F,11.69
23,CCCn1nnc(NC(=O)COc2ccc(C3CCCCC3)cc2)n1,9.09
24,Clc1cccc(CO[C@H]2CCc3ccccc3[C@@H]2n2ccnn2)c1,-3.18
25,CCn1ncc2c(NC3CCOCC3)c(CNC(=O)c3ccnn3C)c(C)nc21,-4.21
26,CC(C)C(Oc1cccc2ccccc12)C(=O)O (centres undefined),4.75
27,CC1(C)Cc2c(c(N3CCOCC3)nc3snc(Br)c23)CO1,1.33

# Rewritten bar-delimited: 2 of the compounds above
row | SMILES | Inhibition [%]
7 | COc1ccc(Cl)cc1NC(=O)CN(C)C(=O)c1cnn(-c2ccccc2)n1 | 14.66
8 | CCN(CC)C(=O)N1CCN(C)CC1 [DIETHYLCARBAMAZINE] | 9.65
